Measurements taken from patent WO2005095457A2 (dated 2005).
Numbering of substitutions follows the chain as printed. Results are given in words; binding and its absence hold for the method and conditions named. Binding calls can cover weak binding; strength is not graded here. Blank lines part the entries; values can stand above or below the binder they belong to.

Tests used:
[1] = target: human Oncostatin M (hOSM) (human); experiment: gp130 inhibition ELISA, human OSM
[2] = target: Human recombinant OSM (R&D Systems, non-glycosylated) (human); experiment: gp130-OSM ELISA
[3] = target: human Oncostatin M (hOSM) (human); experiment: gp130 inhibition ELISA
[4] = target: human Oncostatin M (hOSM) (human); experiment: gp130 inhibition ELISA and KB cell assay
[5] = target: human Oncostatin M (hOSM) (human); experiment: gp130 ELISA
[6] = target: human Oncostatin M (hOSM) (human); experiment: gp130 inhibition ELISA, purified antibodies
[7] = target: human Oncostatin M (hOSM) (human); experiment: gp130 inhibition ELISA, CHO supernatant

B1: 15E10 murine antibody (antibody, mouse IgG2a, V domains shown)
VH: QVQLKQSGPGLVQPSQSLSITCTVSGFSLTNYGVHWVRQSPGKGLEWLGVIWRGGSTDYNAAFMSRLSITKDNSRSQVFFKMNSLQADDTAIYYCAKSPNSNFYWYFDVWGTGTTVTVSS
VL: QIVLTQSPTIMSASPGEKVTMTCSGSSSVSYMYWYQEKPGSSPRLLIEDTSNLASGVPARFSGSGSGTSYSLTISRMEAEDAATYYCQQWSSYPPTFGSGTKLEIK
notes: also called clone 15E10; parent murine 15E10
- binding [1]: binds
- binding [2]: binds

B3: 10D3 murine antibody (antibody, mouse IgG1, V domains shown)
VH: EVQLQQSGPELVKPGASVKISCKASGYIFTDYNMDWVKQSHGKKLEWIGDINPNNGGTIDNQKFKDKATLTVDKSSSTAYMELRSLTSEDTAVYYCARGIYYYGSHYFDYWGQGTTLTVSS
VL: QIVLTQSPAIMSASPGEKVTMTCSATSSVSVMHWFQKKSGTSPKRWIYDTSKLASGVPTRFSGSGSGTSYSLTISSMEAEDTATYYCQQWSSNPLTFGSGTKLELK
- binding [1]: binds

B4: 10D3 chimaeric antibody (antibody, human IgG1, V domains shown)
VH: B3 VH
VL: B3 VL
notes: expressed in CHO; also called chimaeric 10D3; chimeric 10D3
- binding [3]: binds
- binding [4]: binds
- binding [5]: binds

More lines, now with the values ahead:

- binding [3]: binds
- binding [4]: binds
B2: 15E10 chimaeric antibody (antibody, human IgG1, V domains shown)
VH: B1 VH
VL: B1 VL
notes: expressed in CHO; also called chimaeric 15E10; 15E10 chimaera

- binding [6]: binds
B5: humanised 15E10 antibody B2L2 (antibody, V domains shown)
VH: QVQLVESGGGVVQPGRSLRLSCAASGFSLTNYGVHWVRQAPGKGLEWVAVIWRGGSTDYNAAFMSRFTISRDNSKNTLYLQMNSLRAEDTAVYYCAKSPNSNFYWYFDVWGRGTLV
VL: EIVLTQSPATLSLSPGERATLSCSGSSSVSYMYWYQQKPGQAPRLLIEDTSNLASGIPARFSGSGSGTDYTLTISNLEPEDFAVYYCQQWSSYPPTFGQGTKLEIK

- binding [7]: binds
- binding [6]: binds
B6: humanised 15E10 antibody B4L2 (antibody, V domains shown)
VH: QVQLVESGGGVVQPGRSLRLSCAASGFSLTNYGVHWVRQAPGKGLEWVAVIWRGGSTDYNAAFMSRLTISKDNSKNTLYLQMNSLRAEDTAVYYCAKSPNSNFYWYFDVWGRGTLVTVSS
VL: EIVLTQSPATLSLSPGERATLSCSGSSSVSYMYWYQQKPGQAPRLLIEDTSNLASGIPARFSGSGSGTDYTLTISNLEPEDFAVYYCQQWSSYPPTFGQGTKLEIKR

- binding [7]: binds
B7: humanised 15E10 antibody B4L1 (antibody, V domains shown)
VH: B6 VH
VL: B5 VL with E48Y, Y70F

- binding [3]: binds
- binding [6]: binds
B8: humanised 15E10 antibody B3L2 (antibody, human IgG1, kappa, V domains shown)
VH: B6 VH with L67F
VL: B6 VL
notes: Human IgG1 wild type / kappa; purified from CHO; also called B3L2 wt; 15E10-B3L2
